## Primary screen of a compound library

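Whole-parasite assay of Trypanosoma brucei over 72 hours; the read-out is not stated. Compounds at 30 µM. Direction is inferred from retests: higher values go with stronger inhibition. Values scatter widely below zero; nearly all retest evidence comes from the higher of the two concentrations used. Of about 64,000 compounds tested this way, about 940 (1.5%) reached 50% or more in at least one test.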

Values are the deposited “Percent Effect”, in %. The record does not define 0% and 100%; most values in the screen are far below 50% and negative numbers occur (in some assays of this library far below -100). This is an unselected part of the compounds tested.

O=C(NCc1cn2c(n1)CN(Cc1ccncc1)CC2)C1CCC1.O=C(O)C(F)(F)F.O=C(O)C(F)(F)F gave -14.74%.
c1cnn(CC2CCCCN2c2ncnc3sccc23)c1 (configuration not stated) gave -38.14%.
CC(=O)N1CCCN(C(C)C(=O)Nc2ccnn2C(C)C)CC1 (configuration not stated) gave 2.61%.
CCOc1nnc(CN(C)CC2CCCN2c2cccnn2)s1 (configuration not stated) gave 2.197%.
CNc1nc2c(s1)C(=O)CN(C(=O)[C@@H](N)Cc1cccc(OC)c1)C2 gave -12.06%.
Cc1nccn1-c1ccc(NS(=O)(=O)c2cccnc2)cn1 gave 7.591%.
c1cc(-c2n[nH]cc2-c2ccnc(N3CCCC3)n2)ccn1 gave 41.74%.
CN1CCCC(c2nccnc2-c2cccc(C(F)(F)F)c2)C1 (configuration not stated) gave -28.57%.
Cc1nn(CC(=O)N2CCCCC2Cn2cccn2)c(C)c1Cl (configuration not stated) gave -21.04%.
O=C(NCCCc1ccco1)c1cnc(N2CCOCC2)nc1 gave -0.1636%.
Cc1ccc(N2CCN(C(=O)COc3ncccn3)CC2)nn1 gave -23.56%.
O=C(c1cccs1)N1CCN(C(=O)c2ncoc2-c2ccco2)CC1 gave -7.988%.
CC(=O)Nc1ccc(Oc2cc(C)nc(C3CCCNC3)c2)cc1.Cl (configuration not stated) gave -25.31%.
CCC(=O)N1CCC2(COCc3cnc(NCc4ccco4)nc32)C1 (configuration not stated) gave -47.78%.
[H][C@@]12CCCO[C@]1([H])[C@H](NS(C)(=O)=O)CN(Cc1ccoc1)C2 gave -4.756%.
CCC(C(=O)NC(C)(C)C)n1ccc2ncccc2c1=O (configuration not stated) gave 8.399%.
COCCNC(=O)CSCc1nc(O)c2cc(C(C)C)sc2n1 gave -22.15%.
[H][C@@]12C[C@H](C(=O)N(C)C)[C@@]([H])(CN(S(=O)(=O)CCC)C1)O2 gave -25.74%.
[H][C@@]12C[C@@H](O)CN1C[C@H](Cc1ccccc1)N(Cc1cnc(OC)nc1)C2 gave -3.183%.
Cc1cc(NC(=O)C(C)N2CCCN(c3nccs3)CC2)on1 (configuration not stated) gave -15.55%.
CCCS(=O)(=O)N1CC(=O)N(Cc2ccccc2OC)CC(O)C1 (configuration not stated) gave -19.84%.
Cc1cccc(C)c1OCC(=O)NS(=O)(=O)c1c(C)noc1C gave 4.179%.
O=c1oc(-c2ccc(F)cc2)nn1CCc1ccccn1 gave -41.97%.
COCc1ccccc1C(=O)N1CCC(CNC(=O)OC(C)(C)C)C1 (configuration not stated) gave -18.25%.
CCc1ncncc1C(=O)N1CCCN(Cc2ccc(C)cc2)CC1 gave -32.44%.
[H][C@@]12CN(Cc3c(C)noc3C)C[C@]1([H])OCCN2Cc1cnn(C)c1 gave -162.4%.
Cc1ccc(CC(=O)N2Cc3nccn3CC(CN(C)C)C2)cc1.O=C(O)C(F)(F)F (configuration not stated) gave 0.7892%.
CN(Cc1ccc(F)cc1)C(=O)CN1CCCCC1Cn1cncn1 (configuration not stated) gave -16.92%.
c1coc(CN2Cc3nccn3CC(Cn3cncn3)C2)c1 (configuration not stated) gave -30.72%.
COc1cccc(CNC(=O)CC2CSc3ncc(C)c(=O)n32)c1 (configuration not stated) gave -21.56%.
O=C(O)C(F)(F)F.[H][C@]12CN(c3ncc(C)cn3)C[C@@]1(C(=O)O)CCCN(C1CCOC1)C2 (some centres not stated) gave -87.55%.
CN(C)Cc1ccnc(C2CCCN2Cc2ccncc2)n1 (configuration not stated) gave -17.63%.
CCOCC1CN(Cc2ccc(F)cc2)Cc2nn(CC3CC3)cc21 (configuration not stated) gave 2.243%.
Cc1nn(C)cc1S(=O)(=O)N(CCc1ccccc1)Cc1ccn(C)n1 gave -8.751%.
COCc1ccccc1C(=O)OCc1noc(C)n1 gave -23.1%.
CCOC(=O)[C@H]1[C@@H](O)C(=O)N(C)C12CCN(C(=O)C(CC)CC)CC2 gave 19.36%.
O=C(c1cccnc1)N(CCO)Cc1cc(Br)ccc1F gave -13.35%.
[H][C@]12C[C@@H](CN(C)C)N(C(C)=O)[C@@]1([H])CCN(C(=O)c1ccsc1)C2 gave -10.56%.

Some entries from above, unchanged:

| structure | Percent Effect |
|---|---|
| `O=c1oc(-c2ccc(F)cc2)nn1CCc1ccccn1` | -41.97 |
| `COc1cccc(CNC(=O)CC2CSc3ncc(C)c(=O)n32)c1` (configuration not stated) | -21.56 |
| `Cc1ccc(N2CCN(C(=O)COc3ncccn3)CC2)nn1` | -23.56 |
| `Cc1ccc(CC(=O)N2Cc3nccn3CC(CN(C)C)C2)cc1.O=C(O)C(F)(F)F` (configuration not stated) | 0.7892 |

Measurements from “University of Dundee, Small-Polar-MMV Screening Library” (2021), ChEMBL document CHEMBL3988442.